PubChem BioAssay AID493246 | Drosophila RNAi Screening Center | 2011
The screen tested about 21,000 reagents; below is a random part of those that have a named target and a result. Of all reagents, 429 (2%) got an active call. 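Values are raw and not normalised between plates; calls rest on per-plate z-scores that were not deposited.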 Not stated in the record: the amount of reagent, the time to read-out.

- Test: 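Genes fly cells need to grow and stay alive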 (primary screen)
- System: Drosophila Kc and S2R+ cells
- Knock-down reagent: long dsRNA against Drosophila genes
- Read-out: 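Raw, unnormalised count of remaining cells in each well; per-plate z-scores of cell number underlie the calls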
- Reading the numbers: Kc cell number and S2R+ cell number: higher = more cells remaining
- Active means: 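Active when the per-plate z-score of cell number is 3 or more in the direction of fewer cells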

gene	PubChem SID	Kc cell number, rep 1	Kc cell number, rep 2	S2R+ cell number, rep 1	S2R+ cell number, rep 2	call
CG3198	SID104198084	1.46e6	1.46e6	9.48e5	1.10e6	inactive
CG12920	SID104186026	1.54e6	1.56e6	1.25e6	1.30e6	inactive
CG13766	SID104182063	1.50e6	1.41e6	1.08e6	1.21e6	inactive
Hat1	SID104192090	1.36e6	1.41e6	1.28e6	1.38e6	inactive
Oxp	SID104186504	1.61e6	1.65e6	1.27e6	1.39e6	inactive
BEAF-32	SID104185719	1.42e6	1.47e6	1.16e6	1.29e6	inactive
CG3652	SID104180416	1.67e6	1.61e6	1.12e6	1.23e6	inactive
mael	SID104191686	1.47e6	1.54e6	1.18e6	1.24e6	inactive
CG2127	SID104186613	1.48e6	1.59e6	1.31e6	1.46e6	inactive
Sobp	SID104187104	1.43e6	1.50e6	1.07e6	1.09e6	inactive
bin3	SID104184711	1.46e6	1.53e6	1.10e6	1.41e6	inactive
Cdc2rk	SID104187382	1.48e6	1.57e6	1.24e6	1.32e6	inactive
CG13813	SID104189860	1.66e6	1.72e6	1.31e6	1.45e6	inactive
CG15657	SID104184040	1.53e6	1.54e6	1.24e6	3.30e5	inactive
TwdlT	SID104196469	1.46e6	1.49e6	1.01e6	1.12e6	inactive
CG11454	SID104180102	1.29e6	1.26e6	5.45e5	5.93e5	inactive
aln	SID104188032	1.56e6	1.39e6	9.77e5	1.26e6	inactive
SmD1	SID104189592	1.23e6	1.29e6	8.63e5	1.06e6	inactive
tbc	SID104200332	1.45e6	1.51e6	8.59e5	9.48e5	inactive
dsx-c73A	SID104189227	1.37e6	1.40e6	1.12e6	1.25e6	inactive
dsx-c73A	SID104189706	1.35e6	1.46e6	1.38e6	1.42e6	inactive
dsx-c73A	SID104190221	1.26e6	1.44e6	1.23e6	1.34e6	inactive
CG14853	SID104194769	1.40e6	1.45e6	9.79e5	1.12e6	inactive
LSm3	SID104195712	1.49e6	1.52e6	9.98e5	1.11e6	inactive

As entered above:
tbc [SID104200332], call = inactive
For “S2R+ cell number, rep 2”, mael [SID104191686] shows 1.24e6
